Data source: PubChem BioAssay AID1671195 (Yale University, 2021)
Assay: 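Regulators of LDL receptor activity judged by labelled LDL uptake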 (primary screen). System: human Huh7 hepatoma cells. Reagent: siRNA pool against human genes, 18 nM. Timing: about 2 to 2.5 days of knockdown, then 8 h LDL uptake. Conditions: DiI-labelled LDL at 30 µg/ml for 8 h, in lipoprotein-deficient serum medium. Measurement: 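Fluorescent LDL signal imaged in cells, scaled to the plate median, robust z-score for each replicate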. Direction: robust z-score: higher = more LDL uptake after knockdown. Active means: 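a gene counts as active if at least two replicate z-scores exceed ±2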.
Here is a random part of about 22,000 reagents tested. About 1,510 of all reagents (6.9%) were called active. 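Active includes knockdowns raising or lowering LDL uptake; positive z-scores mean more uptake, negative mean less.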 Reagents against one gene are numbered here.

gene symbol | reagent | robust z-score, replicate 1 | robust z-score, replicate 2 | robust z-score, replicate 3 | Call
RNASE4 (ribonuclease A family member 4) | 1 | 1.05 | 1.01 | 0.614 | inactive
HOXC11 (homeobox C11) | 1 | 2.62 | 2.14 | 2.78 | active
TLCD5 (TLC domain containing 5) | 1 | -0.042 | -0.192 | -0.282 | inactive
TRAPPC10 (trafficking protein particle complex subunit 10) | 1 | 0.89 | 0.28 | 0.648 | inactive
ZNF578 (zinc finger protein 578) | 1 | -1.74 | -1.36 | -1.66 | inactive
IL36A (interleukin 36 alpha) | 1 | -0.826 | 1.63 | 0.88 | inactive
VGLL2 (vestigial like family member 2) | 1 | 1.78 | 1.91 | 1.99 | inactive
IFI44L (interferon induced protein 44 like) | 1 | -1.21 | 0.429 | -1.22 | inactive
GPR26 (G protein-coupled receptor 26) | 1 | 0.131 | 0.534 | 0.344 | inactive
LOC442170 (retired record) | 1 | 1.46 | 1.17 | 1.4 | inactive
KCNIP4 (potassium voltage-gated channel interacting protein 4) | 1 | -1.61 | -1.73 | -1.14 | inactive
DNAJB9 (DnaJ heat shock protein family (Hsp40) member B9) | 1 | 0.0705 | 0.146 | 0.226 | inactive
MYOZ1 (myozenin 1) | 1 | -1.25 | -0.527 | -0.556 | inactive
CCL19 (C-C motif chemokine ligand 19) | 1 | 0.224 | 0.178 | 0.518 | inactive
EMC7 (ER membrane protein complex subunit 7) | 1 | 0.435 | 1.11 | 1.4 | inactive
CYP4F12 (cytochrome P450 family 4 subfamily F member 12) | 1 | -1.03 | -0.76 | -0.677 | inactive
VAMP8 (vesicle associated membrane protein 8) | 1 | 1.52 | 0.854 | 2.17 | inactive
WNT8B (Wnt family member 8B) | 1 | 0.726 | 0.455 | -0.338 | inactive

Active calls (from the list above):
gene symbol | reagent | robust z-score, replicate 1 | robust z-score, replicate 2 | robust z-score, replicate 3 | Call
HOXC11 (homeobox C11) | 1 | 2.62 | 2.14 | 2.78 | active

Additional records:
gene symbol | reagent | robust z-score, replicate 1 | robust z-score, replicate 2 | robust z-score, replicate 3 | Call
CRYZ (crystallin zeta) | 1 | 0.765 | 0.257 | 1.18 | inactive
THBS3 (thrombospondin 3) | 1 | -0.193 | -0.531 | -1.55 | inactive
FGF16 (fibroblast growth factor 16) | 1 | -2.47 | -2.3 | -2.79 | active
PTGES3 (prostaglandin E synthase 3) | 1 | -1.45 | -1.56 | -0.363 | inactive
SCGB2A1 (secretoglobin family 2A member 1) | 1 | 1.68 | 0.873 | 1.15 | inactive
AKR7A2 (aldo-keto reductase family 7 member A2) | 1 | -0.0126 | -0.151 | 0.389 | inactive
TMEM51 (transmembrane protein 51) | 1 | -1.61 | -2.23 | -1.93 | inactive
CACNB1 (calcium voltage-gated channel auxiliary subunit beta 1) | 1 | -0.684 | -0.509 | -0.967 | inactive
CCDC28A (coiled-coil domain containing 28A) | 1 | -0.425 | 0.585 | 1.4 | inactive
CLDN5 (claudin 5) | 1 | 1.33 | 1.86 | 1.07 | inactive
EFL1 (elongation factor like GTPase 1) | 1 | -1.67 | -0.782 | -0.956 | inactive
CCNYL2 (cyclin Y like 2 (pseudogene)) | 1 | -0.488 | -0.644 | 0.707 | inactive
KRABD1 (KRAB domain containing 1) | 1 | -0.197 | -0.234 | -0.322 | inactive
KRABD1 (KRAB domain containing 1) | 2 | -0.764 | -2.94 | -0.441 | inactive
FSCN2 (fascin actin-bundling protein 2, retinal) | 1 | -0.0949 | -2.03 | 0.0631 | inactive
KLF3 (KLF transcription factor 3) | 1 | 0.488 | 0.0701 | 0.0788 | inactive
ZKSCAN5 (zinc finger with KRAB and SCAN domains 5) | 1 | 0.987 | 1.35 | 1.26 | inactive
LOC440770 (retired record) | 1 | 1.51 | 1.87 | 1.48 | inactive
H1-6 (H1.6 linker histone, cluster member) | 1 | -0.91 | -1.18 | -0.79 | inactive
COPS8-DT (COPS8 divergent transcript) | 1 | -0.428 | -0.545 | -0.571 | inactive
LOC387789 (retired record) | 1 | 0.901 | 2.71 | 1 | inactive
KCNK15 (potassium two pore domain channel subfamily K member 15) | 1 | -0.075 | -0.107 | -0.419 | inactive
TYW2 (tRNA wybutosine-synthesizing protein 2) | 1 | -0.696 | -1.89 | 0.0108 | inactive
FRMD8 (FERM domain containing 8) | 1 | 0.165 | 0.181 | -0.768 | inactive
CSGALNACT2P1 (CSGALNACT2 pseudogene 1) | 1 | 0.342 | 0.798 | 0.735 | inactive
UBXN8 (UBX domain protein 8) | 1 | -0.797 | -1.15 | -0.865 | inactive
CALHM5 (calcium homeostasis modulator family member 5) | 1 | 0.861 | 0.997 | 0.782 | inactive
PSMD12 (proteasome 26S subunit, non-ATPase 12) | 1 | 0.721 | 0.618 | -0.372 | inactive
